# Laboratory results from article PMC8631636.
# Chains of the proteins cited; added tags and fusions are not shown.
# UniProt Q8BLR2: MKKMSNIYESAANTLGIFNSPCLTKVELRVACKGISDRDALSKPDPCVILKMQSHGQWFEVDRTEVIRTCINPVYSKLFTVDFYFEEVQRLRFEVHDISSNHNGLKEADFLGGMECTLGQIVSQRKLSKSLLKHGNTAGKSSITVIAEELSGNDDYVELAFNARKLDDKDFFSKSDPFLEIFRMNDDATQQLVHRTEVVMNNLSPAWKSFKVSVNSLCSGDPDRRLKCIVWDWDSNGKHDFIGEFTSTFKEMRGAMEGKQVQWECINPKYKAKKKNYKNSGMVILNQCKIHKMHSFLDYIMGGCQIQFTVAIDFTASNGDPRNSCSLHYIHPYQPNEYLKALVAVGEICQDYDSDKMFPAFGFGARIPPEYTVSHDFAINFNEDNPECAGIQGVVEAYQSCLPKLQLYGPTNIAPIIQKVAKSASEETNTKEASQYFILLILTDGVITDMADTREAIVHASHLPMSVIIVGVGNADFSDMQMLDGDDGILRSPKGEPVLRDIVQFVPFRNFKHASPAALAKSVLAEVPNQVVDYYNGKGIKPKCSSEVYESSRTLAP
# UniProt P14873: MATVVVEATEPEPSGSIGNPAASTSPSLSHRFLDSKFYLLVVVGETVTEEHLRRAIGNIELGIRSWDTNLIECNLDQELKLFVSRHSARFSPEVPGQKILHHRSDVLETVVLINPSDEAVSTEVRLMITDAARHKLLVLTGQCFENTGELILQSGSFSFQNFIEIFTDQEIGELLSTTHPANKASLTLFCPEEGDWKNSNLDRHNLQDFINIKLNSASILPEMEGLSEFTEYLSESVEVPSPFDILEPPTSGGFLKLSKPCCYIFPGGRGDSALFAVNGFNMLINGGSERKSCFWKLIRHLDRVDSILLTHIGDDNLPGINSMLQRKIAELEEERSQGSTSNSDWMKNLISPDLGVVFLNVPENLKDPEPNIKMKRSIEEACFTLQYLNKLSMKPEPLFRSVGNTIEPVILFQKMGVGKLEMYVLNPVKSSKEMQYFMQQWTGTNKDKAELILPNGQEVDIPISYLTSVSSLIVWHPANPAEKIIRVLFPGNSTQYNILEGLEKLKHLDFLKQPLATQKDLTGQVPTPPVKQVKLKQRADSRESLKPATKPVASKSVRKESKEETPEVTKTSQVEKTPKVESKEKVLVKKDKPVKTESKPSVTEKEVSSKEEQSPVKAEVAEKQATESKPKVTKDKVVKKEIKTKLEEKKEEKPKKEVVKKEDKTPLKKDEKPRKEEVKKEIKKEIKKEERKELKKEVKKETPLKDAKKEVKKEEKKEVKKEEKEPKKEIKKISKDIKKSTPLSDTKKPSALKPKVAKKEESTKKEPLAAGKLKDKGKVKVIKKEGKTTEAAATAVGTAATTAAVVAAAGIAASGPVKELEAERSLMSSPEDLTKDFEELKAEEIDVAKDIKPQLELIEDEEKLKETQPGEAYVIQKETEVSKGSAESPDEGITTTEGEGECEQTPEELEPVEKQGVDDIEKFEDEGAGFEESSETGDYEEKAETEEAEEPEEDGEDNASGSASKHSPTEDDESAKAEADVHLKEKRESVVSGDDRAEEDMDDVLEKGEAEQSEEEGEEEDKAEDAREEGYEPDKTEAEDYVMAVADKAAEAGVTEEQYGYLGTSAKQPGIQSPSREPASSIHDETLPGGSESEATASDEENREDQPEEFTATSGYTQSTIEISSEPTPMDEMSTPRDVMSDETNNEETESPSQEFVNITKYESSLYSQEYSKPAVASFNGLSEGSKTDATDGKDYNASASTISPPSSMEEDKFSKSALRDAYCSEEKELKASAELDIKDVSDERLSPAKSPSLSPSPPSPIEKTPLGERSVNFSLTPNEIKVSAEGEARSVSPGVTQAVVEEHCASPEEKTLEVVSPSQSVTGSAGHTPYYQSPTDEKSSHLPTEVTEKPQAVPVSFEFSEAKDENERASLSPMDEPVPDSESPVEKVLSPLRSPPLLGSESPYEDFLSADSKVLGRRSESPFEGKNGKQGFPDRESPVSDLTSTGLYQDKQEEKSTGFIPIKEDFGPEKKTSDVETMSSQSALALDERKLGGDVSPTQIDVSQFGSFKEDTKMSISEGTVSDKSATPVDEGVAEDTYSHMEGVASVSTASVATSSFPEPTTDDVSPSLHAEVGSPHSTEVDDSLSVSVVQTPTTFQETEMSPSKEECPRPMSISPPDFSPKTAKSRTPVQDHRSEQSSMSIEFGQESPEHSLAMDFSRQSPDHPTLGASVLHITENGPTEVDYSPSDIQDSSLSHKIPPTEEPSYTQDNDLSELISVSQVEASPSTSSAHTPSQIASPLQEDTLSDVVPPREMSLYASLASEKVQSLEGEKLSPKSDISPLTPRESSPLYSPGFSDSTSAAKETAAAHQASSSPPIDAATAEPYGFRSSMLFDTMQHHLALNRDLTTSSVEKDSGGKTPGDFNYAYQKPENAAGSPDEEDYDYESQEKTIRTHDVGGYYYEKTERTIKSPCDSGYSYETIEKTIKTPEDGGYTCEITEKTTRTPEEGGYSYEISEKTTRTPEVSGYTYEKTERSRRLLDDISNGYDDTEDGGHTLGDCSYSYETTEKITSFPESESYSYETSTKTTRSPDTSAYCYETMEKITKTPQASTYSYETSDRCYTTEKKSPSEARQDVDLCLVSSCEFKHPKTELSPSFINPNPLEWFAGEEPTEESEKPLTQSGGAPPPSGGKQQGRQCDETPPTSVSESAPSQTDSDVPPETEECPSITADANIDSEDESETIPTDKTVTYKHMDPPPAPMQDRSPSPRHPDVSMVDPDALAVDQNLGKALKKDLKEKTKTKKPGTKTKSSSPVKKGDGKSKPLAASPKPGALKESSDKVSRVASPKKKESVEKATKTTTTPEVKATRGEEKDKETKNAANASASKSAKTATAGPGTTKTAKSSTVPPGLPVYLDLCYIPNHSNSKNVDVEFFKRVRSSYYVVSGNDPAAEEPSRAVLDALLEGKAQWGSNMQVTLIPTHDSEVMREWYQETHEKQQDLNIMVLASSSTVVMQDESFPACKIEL
# UniProt Q9JIS5: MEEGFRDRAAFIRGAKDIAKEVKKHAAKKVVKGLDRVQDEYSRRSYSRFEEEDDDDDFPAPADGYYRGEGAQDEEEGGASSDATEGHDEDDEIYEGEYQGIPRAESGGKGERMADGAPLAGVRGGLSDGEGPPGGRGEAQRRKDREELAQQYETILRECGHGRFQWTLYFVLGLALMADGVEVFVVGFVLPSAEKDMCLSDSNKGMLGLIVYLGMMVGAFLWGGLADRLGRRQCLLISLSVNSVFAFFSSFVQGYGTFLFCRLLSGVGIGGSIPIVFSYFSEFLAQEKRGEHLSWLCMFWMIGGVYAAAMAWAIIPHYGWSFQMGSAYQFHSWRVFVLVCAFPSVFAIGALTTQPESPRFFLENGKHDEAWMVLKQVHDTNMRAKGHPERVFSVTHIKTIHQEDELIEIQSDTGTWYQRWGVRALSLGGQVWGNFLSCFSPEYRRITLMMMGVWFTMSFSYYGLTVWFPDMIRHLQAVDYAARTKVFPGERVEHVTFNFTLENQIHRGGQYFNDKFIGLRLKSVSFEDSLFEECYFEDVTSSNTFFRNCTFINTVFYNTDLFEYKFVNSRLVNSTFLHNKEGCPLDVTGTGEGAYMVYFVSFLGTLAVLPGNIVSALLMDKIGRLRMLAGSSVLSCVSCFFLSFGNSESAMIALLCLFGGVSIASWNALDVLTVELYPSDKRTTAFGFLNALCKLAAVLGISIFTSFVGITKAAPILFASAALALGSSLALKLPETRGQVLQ
# UniProt P61264: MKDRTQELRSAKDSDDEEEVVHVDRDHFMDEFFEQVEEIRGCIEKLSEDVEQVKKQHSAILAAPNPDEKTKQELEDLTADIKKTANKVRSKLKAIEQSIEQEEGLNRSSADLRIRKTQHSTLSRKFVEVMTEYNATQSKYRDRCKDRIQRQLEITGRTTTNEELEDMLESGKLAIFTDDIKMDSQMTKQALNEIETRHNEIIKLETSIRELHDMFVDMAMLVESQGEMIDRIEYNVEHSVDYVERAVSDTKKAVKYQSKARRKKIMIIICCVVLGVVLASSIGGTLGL
# These are yes or no findings as the source states them, for the method shown. In cells and extracts the contact can be indirect. Some binding calls cover weakened binding; strength is not graded here.
# Molecular target: GST-Cpne4 (UniProt Q8BLR2)
# Test: pull-down; GST, GST-Cpne4-vWA or GST-Cpne4 on glutathione magnetic beads incubated overnight at 4°C with cleared mouse retina lysate; eluates checked with specific antibodies by Western blotting; only the target purified
row,binding,Substance
1,binds,Map1b (from UniProt P14873 1-2464)
2,binds,SV2 (from UniProt Q9JIS5 1-742)
3,binds,Syntaxin-1 (from UniProt P61264 1-288)
